From patent US6399065 (SCHERING, dated 2002)
Results are given in words; binding and its absence hold for the method and conditions named. Some results given as binding are weak or reduced against the parent protein; the word gives no strength. Where a sequence is shown, tags or fusion partners need not be part of it.

What was measured:
[1] = biological target: SLAM-Ig (SLAM-immunoglobulin fusion protein: entire extracellular domain of human SLAM fused to the Fc portion of human IgG1 heavy chain) (human) (UniProt Q13291); experiment: native gel electrophoresis
[2] = biological target: T1, human SLAM (SLAM1, encoded by pSURslam1), cell surface (human) (UniProt Q13291); experiment: flow cytometry on SLAM expressing L cells
T1 sequence: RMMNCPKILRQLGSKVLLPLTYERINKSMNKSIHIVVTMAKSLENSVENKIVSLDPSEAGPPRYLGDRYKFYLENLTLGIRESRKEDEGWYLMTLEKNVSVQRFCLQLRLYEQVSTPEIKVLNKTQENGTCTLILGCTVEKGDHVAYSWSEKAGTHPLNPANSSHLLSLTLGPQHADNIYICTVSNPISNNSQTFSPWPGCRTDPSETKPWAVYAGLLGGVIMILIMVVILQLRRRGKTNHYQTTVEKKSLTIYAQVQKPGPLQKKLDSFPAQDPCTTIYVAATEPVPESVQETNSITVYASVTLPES

[3] = biological target: T1, human SLAM (SLAM1, encoded by pSURslam1), cell surface (human); experiment: flow cytometry on SLAM transfected L cells
[4] = biological target: SLAM-Ig (SLAM-immunoglobulin fusion protein: entire extracellular domain of human SLAM fused to the Fc portion of human IgG1 heavy chain) (human) (UniProt Q13291); experiment: native gel electrophoresis of purified SLAM-Ig
[5] = biological target: T1, human SLAM (SLAM1, encoded by pSURslam1), cell surface (human); experiment: flow cytometry with fluorescein conjugated SLAM-Ig
[6] = biological target: SLAM-Ig (SLAM-immunoglobulin fusion protein: entire extracellular domain of human SLAM fused to the Fc portion of human IgG1 heavy chain) (human) (UniProt Q13291); experiment: native gel electrophoresis (2-25% gradient) and gel filtration
[7] = biological target: T1, human SLAM (SLAM1, encoded by pSURslam1), cell surface (human); experiment: flow cytometry with fluorescein conjugated SLAM-Ig on various cell types

Measured: binding

B1: SLAM-Ig (SLAM-immunoglobulin fusion protein: entire extracellular domain of human SLAM fused to the Fc portion of human IgG1 heavy chain) (Fc fusion)
chain: ASYGTGGRMMNCPKILRQLGSKVLLPLTYERINKSMNKSIHIVVTMAKSLENSVENKIVSLDPSEAGPPRYLGDRYKFYLENLTLGIRESRKEDEGWYLMTLEKNVSVQRFCLQLRLYEQVSTPEIKVLNKTQENGTCTLILGCTVEKGDHVAYSWSEKAGTHPLNPANSSHLLSLTLGPQHADNIYICTVSNPISNNSQTFSPWPGCRTDPSETKP
notes: Fluorescein conjugated for flow cytometry; also called recombinant SLAM-Ig; soluble form of SLAM (SLAM-Ig); not shown: Fc portion of the human IgG1 heavy chain
binds: [1] | [2] | [3] | [4] | [5] | [6] | [7]
